US20100215655A1 (CHENGDU KANGHONG BIOTECHNOLOGIES, published 2010)
Results are given in words; binding and its absence hold for the method and conditions named. Some binding calls cover weakened binding; strength is not graded here. Where a sequence is shown, tags or fusion partners need not be part of it.

Sequences of proteins named here, by UniProt entry; tags and fusion partners are left off. A change or cut given only in a name is not applied to a line headed by its entry. A line that says so, or that is headed by a name, gives the form on record, which may keep a tag or linker.
recombinant VEGF (vascular endothelial cell growth factor) (P15692, form named): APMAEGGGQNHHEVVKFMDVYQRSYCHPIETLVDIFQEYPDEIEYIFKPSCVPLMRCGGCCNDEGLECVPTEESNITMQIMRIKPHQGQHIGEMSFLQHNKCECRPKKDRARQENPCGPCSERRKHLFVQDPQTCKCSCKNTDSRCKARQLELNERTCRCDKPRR

How the values were obtained:
[1] = target: recombinant VEGF (vascular endothelial cell growth factor) (UniProt P15692); assay: ELISA, VEGF coated on plate (FIG. 2)
[2] = target: recombinant VEGF (vascular endothelial cell growth factor) (UniProt P15692); assay: ELISA, VEGF coated on plate, anti-human Ig-HRP detection

| Binder | binding [1] | binding [2] |
| --- | --- | --- |
| FP2′ (KDRd1-FLTd2-KDRd3-Fc) (Fc fusion, not shown: a dimerising Fc or GST, Expressed in 293 cells) PRLSIQKDILTIKANTTLQITCRGQRDLDWLWPNNQSGSEQRVEVTECSDGLFCKTLTIPKVIGNDTGAYKCFYRETDLASVIYVYPFVEMYSEIPEIIHMTEGRELVIPCRVTSPNITVTLKKFPLDTLIPDGKRIIWDSRKGFIISNATYKEIGLLTCEATVNGHLYKTNYLTHRQTVVLSPSHGIELSVGEKLVLNCTARTELNVGIDFNWEYPSSKHQHKKLVNRDLKTQSGSEMKKFLSTLTIDGVTRSDQGLYTCAASSGLMTKKNSTFVRVHEK | binds | binds |
| FP4′ (FLTd2-KDRd3-FLTd4-Fc) (Fc fusion, not shown: a dimerising Fc or GST, Expressed in 293 cells) PFVEMYSEIPEIIHMTEGRELVIPCRVTSPNITVTLKKFPLDTLIPDGKRIIWDSRKGFIISNATYKEIGLLTCEATVNGHLYKTNYLTHRQTVVLSPSHGIELSVGEKLVLNCTARTELNVGIDFNWEYPSSKHQHKKLVNRDLKTQSGSEMKKFLSTLTIDGVTRSDQGLYTCAASSGLMTKKNSTFVRVHEKFITVKHRKQQVLETVAGKRSYRLSMKVKAFPSPEVVWLKDGLPATEKSARYLTRGYSLIIKDVTEEDAGNYTILLSIKQSNVFKNLTATLIVNVKP | binds | binds |
| FP1′ (FLTd2-KDRd3-Fc), chimeric protein of the prior art (Fc fusion, not shown: a dimerising Fc or GST) PFVEMYSEIPEIIHMTEGRELVIPCRVTSPNITVTLKKFPLDTLIPDGKRIIWDSRKGFIISNATYKEIGLLTCEATVNGHLYKTNYLTHRQTVVLSPSHGIELSVGEKLVLNCTARTELNVGIDFNWEYPSSKHQHKKLVNRDLKTQSGSEMKKFLSTLTIDGVTRSDQGLYTCAASSGLMTKKNSTFVRVHEK |  | binds |
